Measurements reported in PubChem BioAssay AID1259425 (University of Nebraska Medical Center, 2018)
Purpose: 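Compare each knockdown with KSR1 silencing using changes in marker transcripts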 (primary screen). Cells: HCT116 human colon cancer cells. Reagents: siRNA pool against human genes, 50 nM siRNA. Read-out: 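mRNA of six signature genes measured together by branched-DNA assay after 50 nM siRNA pool, blank removed, divided by geometric mean of two housekeeping genes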. Scale: BNIP3L mRNA: higher = more BNIP3L transcript after knockdown; NDRG1 mRNA: higher = more NDRG1 transcript after knockdown.
Shown is one part, drawn at random, of about 14,000 reagents. Some reagents were tested in more than one well and are listed for each. Further read-outs or replicates are left out here. The record does not give: the time to read-out.

SEC61B (GeneID 10952) — BNIP3L mRNA, set 1: 0.465; NDRG1 mRNA, set 1: 0.468
MOAP1 (GeneID 64112) — BNIP3L mRNA, set 1: 0.134; NDRG1 mRNA, set 1: 0.306
MOAP1 (GeneID 64112) — BNIP3L mRNA, set 1: 0.136; NDRG1 mRNA, set 1: 0.342
KLHL9 (GeneID 55958) — BNIP3L mRNA, set 1: 0.0339; NDRG1 mRNA, set 1: 0.117
CHRNB1 (GeneID 1140) — BNIP3L mRNA, set 1: 0.0427; NDRG1 mRNA, set 1: 0.0499
ZNG1A (GeneID 55871) — BNIP3L mRNA, set 1: 0.0861; NDRG1 mRNA, set 1: 0.15
NRL (GeneID 4901) — BNIP3L mRNA, set 1: 0.106; NDRG1 mRNA, set 1: 0.0857
CDC42EP4 (GeneID 23580) — BNIP3L mRNA, set 1: 0.0634; NDRG1 mRNA, set 1: 0.287
HSD17B6 (GeneID 8630) — BNIP3L mRNA, set 1: 0.0858; NDRG1 mRNA, set 1: 0.296
SNX22 (GeneID 79856) — BNIP3L mRNA, set 1: 0.166; NDRG1 mRNA, set 1: 1.25
CAMKK2 (GeneID 10645) — BNIP3L mRNA, set 1: 0.0717; NDRG1 mRNA, set 1: 0.0539
PPIL3 (GeneID 53938) — BNIP3L mRNA, set 1: 0.126; NDRG1 mRNA, set 1: 0.266
RGS12 (GeneID 6002) — BNIP3L mRNA, set 1: 0.369; NDRG1 mRNA, set 1: 0.429

In a second layout: 2 of the entries above.
{"Gene":"MOAP1 (GeneID 64112)","BNIP3L mRNA, set 1":0.136,"NDRG1 mRNA, set 1":0.342}
{"Gene":"KLHL9 (GeneID 55958)","BNIP3L mRNA, set 1":0.0339,"NDRG1 mRNA, set 1":0.117}

Additional results follow:
TRAM1 (GeneID 23471) — BNIP3L mRNA, set 1: 0.116; NDRG1 mRNA, set 1: 0.136
CORT (GeneID 1325) — BNIP3L mRNA, set 1: 0.0568; NDRG1 mRNA, set 1: 0.481
CORT (GeneID 1325) — BNIP3L mRNA, set 1: 0.074; NDRG1 mRNA, set 1: 0.588
RPAP3 (GeneID 79657) — BNIP3L mRNA, set 1: 0.279; NDRG1 mRNA, set 1: 0.838
SRPRA (GeneID 6734) — BNIP3L mRNA, set 1: 0.0793; NDRG1 mRNA, set 1: 0.127
C5 (GeneID 727) — BNIP3L mRNA, set 1: 0.181; NDRG1 mRNA, set 1: 0.301
RBL2 (GeneID 5934) — BNIP3L mRNA, set 1: 0.0543; NDRG1 mRNA, set 1: 0.107
SEMA6C (GeneID 10500) — BNIP3L mRNA, set 1: 0.118; NDRG1 mRNA, set 1: 0.17
ZNF613 (GeneID 79898) — BNIP3L mRNA, set 1: 0.0616; NDRG1 mRNA, set 1: 0.261
ZNF426 (GeneID 79088) — BNIP3L mRNA, set 1: 0.0995; NDRG1 mRNA, set 1: 0.217
MOB2 (GeneID 81532) — BNIP3L mRNA, set 1: 0.113; NDRG1 mRNA, set 1: 0.232
RBP5 (GeneID 83758) — BNIP3L mRNA, set 1: 0.109; NDRG1 mRNA, set 1: 0.0561
MNS1 (GeneID 55329) — BNIP3L mRNA, set 1: 0.125; NDRG1 mRNA, set 1: 0.312
RARA (GeneID 5914) — BNIP3L mRNA, set 1: 0.0933; NDRG1 mRNA, set 1: 0.309
ST3GAL6 (GeneID 10402) — BNIP3L mRNA, set 1: 0.074; NDRG1 mRNA, set 1: 0.252
